{"source": "PubChem BioAssay AID1259299 (Sanger Institute, 2017)", "purpose": "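Essential genes and drug-synergistic partners among kinases and colorectal mutation genes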 (primary screen)", "system": "human CAR1 colorectal cancer cells", "reagents": "siRNA pool against human genes", "challenge": "anchor drug BYL719 1 µM, cetuximab 5 µg/ml or trametinib 10 nM, or DMSO vehicle alone; exposure length not given", "read-out": "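Mean replicate viability versus non-targeting controls, turned into robust z-scores, plus drug synergy scores for BYL719, cetuximab and trametinib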", "scale": "viability robust z-score, knock-down alone: higher = more viable cells", "active means": "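Essential when viability robust z-score with knock-down alone (DMSO) is below -3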", "meaning of the calls": "active = essential (knock-down alone); inactive = no change", "note": "The deposit covers 794 reagents; shown is a part drawn at random. Of all reagents, 9 (1.1%) got an active call. 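Calls rest on knock-down alone; synergy scores play no part in calls, and no gene passed the synergy cut.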 Further read-outs or replicates are left out here. Not stated in the record: the amount of reagent, the time to read-out."}
{"gene": "BLK", "viability robust z-score, knock-down alone": 0.568, "Outcome": "inactive"}
{"gene": "PRKD2", "viability robust z-score, knock-down alone": 0.789, "Outcome": "inactive"}
{"gene": "NAGK", "viability robust z-score, knock-down alone": 0.192, "Outcome": "inactive"}
{"gene": "ITK", "viability robust z-score, knock-down alone": -2.29, "Outcome": "inactive"}
{"gene": "BCOR", "viability robust z-score, knock-down alone": 0.789, "Outcome": "inactive"}
{"gene": "DTYMK", "viability robust z-score, knock-down alone": 0.116, "Outcome": "inactive"}
{"gene": "ERN2", "viability robust z-score, knock-down alone": 0.789, "Outcome": "inactive"}
{"gene": "GRK4", "viability robust z-score, knock-down alone": -0.0168, "Outcome": "inactive"}
{"gene": "YES1", "viability robust z-score, knock-down alone": 0.789, "Outcome": "inactive"}
{"gene": "WNK2", "viability robust z-score, knock-down alone": 0.789, "Outcome": "inactive"}
{"gene": "PKIA", "viability robust z-score, knock-down alone": 0.789, "Outcome": "inactive"}
{"gene": "MAPK7", "viability robust z-score, knock-down alone": 0.789, "Outcome": "inactive"}
{"gene": "NEK7", "viability robust z-score, knock-down alone": -0.0623, "Outcome": "inactive"}
{"gene": "STK40", "viability robust z-score, knock-down alone": 0.319, "Outcome": "inactive"}
{"gene": "EFNA3", "viability robust z-score, knock-down alone": 0.789, "Outcome": "inactive"}
{"gene": "PRKAR2A", "viability robust z-score, knock-down alone": -1.05, "Outcome": "inactive"}
{"gene": "ADPGK", "viability robust z-score, knock-down alone": -0.887, "Outcome": "inactive"}
{"gene": "TSSK1B", "viability robust z-score, knock-down alone": 0.736, "Outcome": "inactive"}
{"gene": "MAP4K1", "viability robust z-score, knock-down alone": -1.26, "Outcome": "inactive"}
{"gene": "TGFBR2", "viability robust z-score, knock-down alone": 0.789, "Outcome": "inactive"}
{"gene": "WNK3", "viability robust z-score, knock-down alone": 0.0503, "Outcome": "inactive"}

Reprinted from the listing, 3 entries:
{"gene": "EFNA3", "viability robust z-score, knock-down alone": 0.789, "Outcome": "inactive"}
{"gene": "PRKAR2A", "viability robust z-score, knock-down alone": -1.05, "Outcome": "inactive"}
{"gene": "ADPGK", "viability robust z-score, knock-down alone": -0.887, "Outcome": "inactive"}
